No constants are given. Whether binding was seen depends on the method and setting. For some assays here: In cells and extracts the contact can be indirect. Some results given as binding are weak or reduced against the parent protein; the word gives no strength. For some assays here: Sequences can lack the tags named with a protein.

Test [1] has as its target T1, ACA8-Nluc (Arabidopsis thaliana) (UniProt Q9LF79).
T1 sequence: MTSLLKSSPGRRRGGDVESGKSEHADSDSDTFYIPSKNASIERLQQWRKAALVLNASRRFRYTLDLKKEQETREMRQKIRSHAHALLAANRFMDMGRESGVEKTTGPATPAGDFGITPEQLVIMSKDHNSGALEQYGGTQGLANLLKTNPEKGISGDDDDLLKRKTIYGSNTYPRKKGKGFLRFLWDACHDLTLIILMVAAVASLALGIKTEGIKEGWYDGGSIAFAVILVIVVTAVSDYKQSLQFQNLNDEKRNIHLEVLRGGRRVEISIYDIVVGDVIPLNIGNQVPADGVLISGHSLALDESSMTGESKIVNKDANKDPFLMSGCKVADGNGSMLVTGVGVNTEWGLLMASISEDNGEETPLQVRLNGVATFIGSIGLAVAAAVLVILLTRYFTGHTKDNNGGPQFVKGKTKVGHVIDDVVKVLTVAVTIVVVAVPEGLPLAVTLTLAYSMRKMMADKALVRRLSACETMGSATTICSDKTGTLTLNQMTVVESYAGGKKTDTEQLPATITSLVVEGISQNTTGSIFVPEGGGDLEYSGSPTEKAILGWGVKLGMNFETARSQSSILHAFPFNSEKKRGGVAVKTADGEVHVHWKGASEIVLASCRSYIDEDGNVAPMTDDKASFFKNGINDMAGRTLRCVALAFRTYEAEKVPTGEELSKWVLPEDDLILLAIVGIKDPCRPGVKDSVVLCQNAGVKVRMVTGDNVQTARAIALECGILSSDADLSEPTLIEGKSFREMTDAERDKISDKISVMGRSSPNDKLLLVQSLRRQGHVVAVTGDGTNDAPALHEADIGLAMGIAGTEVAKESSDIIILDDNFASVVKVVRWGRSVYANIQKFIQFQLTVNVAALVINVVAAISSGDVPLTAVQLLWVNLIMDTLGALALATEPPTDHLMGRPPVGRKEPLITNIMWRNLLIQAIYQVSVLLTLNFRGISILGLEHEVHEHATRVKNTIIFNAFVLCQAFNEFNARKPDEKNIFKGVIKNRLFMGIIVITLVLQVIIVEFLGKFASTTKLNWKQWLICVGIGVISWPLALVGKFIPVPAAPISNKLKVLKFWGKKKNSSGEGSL
Briefly: split reporter; firefly luciferase complementation imaging (LCI) in Nicotiana leaves infiltrated with Agrobacterium GV3101; CAM3-Cluc/ACA8-Nluc against Cluc/Nluc, CAM3-Cluc/Nluc and Cluc/ACA8-Nluc.

Test [2] has as its target T2, ACA8 (residues 1-180)-BK (Arabidopsis thaliana) (UniProt Q9LF79).
T2 sequence: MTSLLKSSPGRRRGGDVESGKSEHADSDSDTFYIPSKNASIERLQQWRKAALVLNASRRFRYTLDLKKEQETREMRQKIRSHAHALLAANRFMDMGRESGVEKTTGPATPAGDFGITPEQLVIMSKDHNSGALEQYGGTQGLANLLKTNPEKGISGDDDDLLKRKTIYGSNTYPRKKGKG
Briefly: two-hybrid; yeast AH109; CAM3 in pGADT7 (prey), ACA8 (residues 1-180) in pGBKT7 (bait); growth on SD/-Ade/-His/-Leu/-Trp and blue colonies with X-alpha-gal.

For CAM3-Cluc (from UniProt P0DH98 1-149), in test [1], the binding result was “binds”.
“CAM3-AD (calmodulin 3 in pGADT7) (from UniProt P0DH98 1-149)”: the binding result in test [2] is listed as “binds”.

Values taken from paper PMC9142083.
